Where “and” joins values, the source holds several entries; their conditions need not be identical. Identical values can stand only once. About 100 (0.03%) of roughly 330,000 compounds were called active. Inconclusive means that the source gave no clear call. Such entries were picked first, then a sample of the others. Calls come from the whole dose curve; as a rule, active = well fitted inhibition curve with a large enough effect; inconclusive = small, poorly fitted or top-dose-only effect; inactive = flat fitted curve, though single readings scatter. Potencies beside an inconclusive call are fits to weak or partial responses and may not hold up.
What follows are compounds tested on Chaperonin Mm-Cpn (Methanococcus maripaludis) (assay: Inhibitors of TCP-1 ring complex (TRiC) of Methanococcus maripaludis (MmCpn): qHTS). Details: purified Mm-Cpn ATPase, ADP Transcreener TR-FRET; activity, negative = inhibition: at the top concentration.
Summary of the method: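 Measured: ADP formation by purified Mm-CPN. Conditions: 25 nM protein, 10 uM ATP, Tris pH 7.4 with Mg2+, K+ and DTT, 37°C for 30 min. Detection: Transcreener HTRF after 30 min at room temperature.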
% is set by controls: 0 for no effect and ±100 for the full control effect; potency is the fitted concentration of half-maximal effect.
Note: nearly all actives have a fitted effect of over 80% in size.
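Throughout, for Potency: enzyme at 25 nM with ATP substrate at 10 µM during the reaction.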

Row | SMILES | Potency | activity, negative = inhibition
1 | COc1ccc(CCNC(=O)C(=O)c2cn(CC(=O)N3CCOCC3)c3ccccc23)cc1OC | inconclusive: 100 µM [inhibitor, single point] | 
2 | CCOC(=O)c1c(NC(=O)Cc2cccs2)sc2c1CCCC2 | inconclusive: 100 µM [inhibitor, single point] | 
3 | COc1ccc(S(=O)(=O)N(C)c2ccc(C(=O)NCc3ccccn3)cc2)cc1 | inconclusive: 70.8 µM [inhibitor, single point] | 
4 | O=C(CSc1ncnc2sc3c(c12)CCCC3)c1ccccc1 | inconclusive: 112 µM [inhibitor, single point] | 
5 | CCN(CC(=O)NCc1cccs1)C(=O)CCOc1ccccc1C | inconclusive: 15.8 µM [inhibitor, single point] | 
6 | CCCCN1CC2([N+](=O)[O-])C=CC(=O)C([N+](=O)[O-])(C1)C2CC(=O)c1ccccc1 (stereo unspecified) | inconclusive: 17.8 µM [inhibitor, single point] | 
7 | O=C(NCC1CCCCC1)C1CCCN(C(=O)NC2CCCCC2)C1 (stereo unspecified) | inconclusive: 79.4 µM [inhibitor, single point] | 
8 | N#Cc1c(N2CCOCC2)nsc1-c1ccccc1 | inconclusive: 126 µM [inhibitor, partial curve] | 
9 | Cc1nn(CC(=O)Nc2ccc3c(c2)OCO3)c(C)c1Cl |  | inactive: 0.88%
10 | Cc1cc(-c2csc(NC(=O)c3ccc(=O)[nH]c3)n2)c(C)n1Cc1ccccc1 | inconclusive: 22.4 µM [inhibitor, partial curve, poor fit] | 
11 | CCOc1ccc(C2C(C(=O)c3ccco3)=C(O)C(=O)N2CCN2CCOCC2)cc1OCC (stereo unspecified) |  | inactive: 0.896%
12 | Nc1c(-c2ccc(Cl)cc2)cnn1-c1cccc([N+](=O)[O-])c1 | inconclusive: 14.1 µM [inhibitor, single point] | 
13 | CCOc1cc(/C=N/NC(=O)CN2CCCCC2)ccc1OCc1cccc(Cl)c1 |  | inactive: -0.221%
14 | Cc1ccc(S(=O)(=O)NCCC(=O)NCC(c2cccs2)N(C)C)cc1C (stereo unspecified) | inconclusive: 282 µM [inhibitor, partial curve, poor fit] | 
15 | C=CCn1sc(=N)c(C#N)c1N | inconclusive: 50.1 µM [inhibitor, single point] | 
16 | CC[N+](CC)(CCCCS(=O)(=O)[O-])CCNP1(=O)C=C(c2ccccc2)OC(c2ccccc2)=C1 |  | inactive: 0.609%
17 | Cc1nn(-c2ccccn2)c2c1-c1nc(N3CCOCC3)ncc1CC2 | inconclusive: 56.2 µM [inhibitor, single point] | 
18 | O=[N+]([O-])c1c(Nc2ccc(O)cc2)cc(Cl)c2nonc12 | inconclusive: 112 µM [inhibitor, partial curve, poor fit] | 
19 | CN(C)CCOCCP(=O)(c1ccccc1)c1ccccc1 | inconclusive: 100 µM [inhibitor, single point] | 
20 | CC1CCCCN1c1nnc(NC(=O)Cn2c(=O)oc3ccccc32)s1 (stereo unspecified) | inconclusive: 70.8 µM [inhibitor, single point] | 
21 | Cc1cc(-n2c(C)cc(C(=O)CSc3ncnc4ccccc34)c2C)no1 | inconclusive: 70.8 µM [inhibitor, single point] | 
22 | CCCC(=O)Nc1nc(C)c(C(C)=O)s1 | inconclusive: 158 µM [inhibitor, partial curve, poor fit] | 

Row | SMILES | Potency | activity, negative = inhibition
23 | O=S1(=O)CC/C(=N\Nc2ccc(F)cc2)c2ccsc21 | inconclusive: 20 µM [inhibitor, single point] | 
24 | COc1cc2sc3cc(NCc4ccc(C)o4)ccc3c(=O)c2cc1OC | inconclusive: 112 µM [inhibitor, single point] | 
25 | Cc1noc(C)c1CSCC(=O)OCc1nc2ccccc2c(=O)n1CC#N | inconclusive: 100 µM [inhibitor, single point] | 
26 | CC1CCCCC1NC(=O)CN1CCC(O)(c2ccc(F)cc2)CC1 (stereo unspecified) | inconclusive: 22.4 µM [inhibitor, single point] | 
27 | CCCCn1c(SCC(=O)NC(C)CC)nc2ccc(N3CCOCC3)cc2c1=O (stereo unspecified) |  | inactive: -1.15%
28 | O=C(COC(=O)c1cc(-c2ccc(Cl)s2)nc2ccccc12)NCc1ccco1 | inconclusive: 141 µM [inhibitor, partial curve, poor fit] | 
29 | O=C(CSc1nnc(-c2ccccc2)o1)OCc1ccccc1 | inconclusive: 79.4 µM [inhibitor, single point] | 
30 | O=C(CSc1nc2ccccc2s1)Nc1ccc(N2CCOCC2)c(Cl)c1 |  | inactive: -3.54%
31 | COc1cc(OC)cc(-c2c(-c3cccs3)c3cc(-c4ccc(OC)c(F)c4)ccc3n2C)c1 | inconclusive: 501 µM [inhibitor, partial curve, poor fit] | 
32 | CCSc1nc2c(c(-c3ccc(C)o3)c1C#N)CCCC2 |  | inactive: -5.79%
33 | O=C(CCCC(=O)NCc1ccc(F)cc1)NCc1ccc(F)cc1 | inconclusive: 44.7 µM [inhibitor, single point] | 
34 | O=C(Nc1ccc(Br)cc1)C1CCN(C(=O)c2ccc(F)cc2)CC1 | inconclusive: 316 µM [inhibitor, partial curve, poor fit] | 
35 | CC(C)(C)c1cc(=O)n(-c2ccccc2)[nH]1 | inconclusive: 56.2 µM [inhibitor, partial curve, poor fit] | 
36 | O=C(CCCSc1ccccc1)Nc1nc(-c2ccco2)c(-c2ccco2)s1 | inconclusive: 1000 µM [inhibitor, partial curve, poor fit] | 
37 | c1ccc(Nc2ncnc3sc4c(c23)CCC4)cc1 | inconclusive: 79.4 µM [inhibitor, single point] | 
38 | COc1ccc(OC)c(Nc2nc3nonc3nc2N2CCCC(C)C2)c1 (stereo unspecified) | inconclusive: 100 µM [inhibitor, single point] | 
39 | CNC(=O)c1ccccc1NC(=O)c1cccc(S(=O)(=O)N2CCC(C)CC2)c1 |  | inactive: 0.417%
40 | O=c1ccc2[n+]([O-])c3ccc(O)cc3oc-2c1 | inconclusive: 31.6 µM [inhibitor, partial curve, poor fit] | 
41 | Cn1ccc2cc(-c3ccc4ncnc(NCc5cccs5)c4c3)ccc21 | inconclusive: 126 µM [inhibitor, partial curve, poor fit] and inconclusive: 89.1 µM [inhibitor, single point] | 
42 | CCC(C)N=CC1=C(O)C(C(=O)OC)C(C)(C)CC1=O (stereo unspecified) | inconclusive: 79.4 µM [inhibitor, single point] | 
43 | Cn1ncc2c(NCc3ccccc3)ncnc21 | inconclusive: 100 µM [inhibitor, single point] | 
44 | Cc1ccccc1C(=O)NNC(=O)C1CCN(C(=O)Nc2ccccc2)CC1 | inconclusive: 15.8 µM [inhibitor, single point] | 

Row | SMILES | Potency | activity, negative = inhibition
45 | CCCN1C(=O)/C(=C/c2ccncc2)SC1=S |  | inactive: 1.72%
46 | Cc1cc(C)cc(C(=O)NCC(=O)NCCc2c[nH]c3ccccc23)c1 |  | inactive: -0.157%
47 | COc1ccc(C2(CNC(=O)/C=C\c3ccco3)CCCC2)cc1OC |  | inactive: 0.269%
48 | Cc1ccc(C(=O)NC(C)CCc2ccccc2)cc1S(=O)(=O)N1CCOCC1 (stereo unspecified) |  | inactive: -1.15%
49 | COc1ccccc1N1CCN(c2ncc(C(=O)N3CCN(c4cccc(Cl)c4)CC3)c3ccccc23)CC1 |  | inactive: 1.17%
50 | NC(=O)c1ccc(N=C2C(=O)Nc3ccc([N+](=O)[O-])cc32)cc1 |  | inactive: -4.38%
51 | C/C(=N\Nc1ccc(C(=O)O)cc1)c1ccc2c(c1)Nc1ccccc1S2 | inconclusive: 398 µM [inhibitor, partial curve, poor fit] | 
52 | COc1ccc(N)c2c1C(=O)c1ccccc1C2=O | inconclusive: 56.2 µM [inhibitor, partial curve] | 
53 | Cn1cnnc1SCC(=O)NCCc1ccc(Cl)cc1Cl | inconclusive: 56.2 µM [inhibitor, single point] | 
54 | O=C(CN1CCN(S(=O)(=O)c2ccc(F)cc2)CC1)c1ccc(O)c(O)c1 | inconclusive: 7.94 µM [inhibitor, single point] | 
55 | Cc1ccccc1N(C(=O)c1csnn1)C(C(=O)NC1CCCC1)c1ccncc1 (stereo unspecified) | inconclusive: 12.6 µM [inhibitor, single point] | 
56 | CCOc1c(OC)ccc2c3c(c(=O)oc12)CCCC3 | inconclusive: 100 µM [inhibitor, single point] | 
57 | Cc1cc(/C=N/NC(=O)C(=O)NCc2ccccn2)c(C)n1-c1cccc(Br)c1 |  | inactive: 0.758%
58 | CC(C)c1ccc(C2C(C#N)=C(N)N3C(=C2C#N)Sc2ccccc23)cc1 (stereo unspecified) | inconclusive: 100 µM [inhibitor, partial curve, poor fit] | 
59 | COc1ccc2oc(C(=O)Nc3nc4ccc(S(C)(=O)=O)cc4s3)c(C)c2c1 |  | inactive: -3.3%
60 | CCc1nc(N2CCOCC2)c(C#N)c2c1CCCC2 |  | inactive: -0.926%
61 | CCOC(=O)C1=NNC(C(=O)c2ccccc2)C1c1ccc(Cl)cc1 (stereo unspecified) | inconclusive: 22.4 µM [inhibitor, single point] | 
62 | Cc1ccc2nc(-c3ccc(NC(=O)CN(c4ccccc4C)S(C)(=O)=O)cc3)sc2c1 | inconclusive: 100 µM [inhibitor, single point] | 
63 | Cc1cc(C)c(NC(=S)NC(NC(=O)c2ccccc2)C(Cl)(Cl)Cl)c(C)c1 (stereo unspecified) | inconclusive: 22.4 µM [inhibitor, single point] | 
64 | COc1ccc(N2CCN(C(c3cccc(OC)c3OC)c3nnnn3C3CCCC3)CC2)cc1 (stereo unspecified) | inconclusive: 100 µM [inhibitor, single point] | 
65 | Cc1cccc(C(C)C)c1NC(=O)c1ccc(COc2ccc3c(C)cc(=O)oc3c2)cc1 | inconclusive: 100 µM [inhibitor, partial curve, poor fit] | 
66 | Cc1ccc(S(=O)(=O)CCC(=O)NCCN2C(=O)S/C(=C\c3ccccc3)C2=O)cc1 |  | inactive: -0.0561%
